## Primary screen of a compound library

By UniProt entry, the sequences of proteins in these tests, tags left out. Residues count along the entry.
UniProt I6X8D2, whole entry: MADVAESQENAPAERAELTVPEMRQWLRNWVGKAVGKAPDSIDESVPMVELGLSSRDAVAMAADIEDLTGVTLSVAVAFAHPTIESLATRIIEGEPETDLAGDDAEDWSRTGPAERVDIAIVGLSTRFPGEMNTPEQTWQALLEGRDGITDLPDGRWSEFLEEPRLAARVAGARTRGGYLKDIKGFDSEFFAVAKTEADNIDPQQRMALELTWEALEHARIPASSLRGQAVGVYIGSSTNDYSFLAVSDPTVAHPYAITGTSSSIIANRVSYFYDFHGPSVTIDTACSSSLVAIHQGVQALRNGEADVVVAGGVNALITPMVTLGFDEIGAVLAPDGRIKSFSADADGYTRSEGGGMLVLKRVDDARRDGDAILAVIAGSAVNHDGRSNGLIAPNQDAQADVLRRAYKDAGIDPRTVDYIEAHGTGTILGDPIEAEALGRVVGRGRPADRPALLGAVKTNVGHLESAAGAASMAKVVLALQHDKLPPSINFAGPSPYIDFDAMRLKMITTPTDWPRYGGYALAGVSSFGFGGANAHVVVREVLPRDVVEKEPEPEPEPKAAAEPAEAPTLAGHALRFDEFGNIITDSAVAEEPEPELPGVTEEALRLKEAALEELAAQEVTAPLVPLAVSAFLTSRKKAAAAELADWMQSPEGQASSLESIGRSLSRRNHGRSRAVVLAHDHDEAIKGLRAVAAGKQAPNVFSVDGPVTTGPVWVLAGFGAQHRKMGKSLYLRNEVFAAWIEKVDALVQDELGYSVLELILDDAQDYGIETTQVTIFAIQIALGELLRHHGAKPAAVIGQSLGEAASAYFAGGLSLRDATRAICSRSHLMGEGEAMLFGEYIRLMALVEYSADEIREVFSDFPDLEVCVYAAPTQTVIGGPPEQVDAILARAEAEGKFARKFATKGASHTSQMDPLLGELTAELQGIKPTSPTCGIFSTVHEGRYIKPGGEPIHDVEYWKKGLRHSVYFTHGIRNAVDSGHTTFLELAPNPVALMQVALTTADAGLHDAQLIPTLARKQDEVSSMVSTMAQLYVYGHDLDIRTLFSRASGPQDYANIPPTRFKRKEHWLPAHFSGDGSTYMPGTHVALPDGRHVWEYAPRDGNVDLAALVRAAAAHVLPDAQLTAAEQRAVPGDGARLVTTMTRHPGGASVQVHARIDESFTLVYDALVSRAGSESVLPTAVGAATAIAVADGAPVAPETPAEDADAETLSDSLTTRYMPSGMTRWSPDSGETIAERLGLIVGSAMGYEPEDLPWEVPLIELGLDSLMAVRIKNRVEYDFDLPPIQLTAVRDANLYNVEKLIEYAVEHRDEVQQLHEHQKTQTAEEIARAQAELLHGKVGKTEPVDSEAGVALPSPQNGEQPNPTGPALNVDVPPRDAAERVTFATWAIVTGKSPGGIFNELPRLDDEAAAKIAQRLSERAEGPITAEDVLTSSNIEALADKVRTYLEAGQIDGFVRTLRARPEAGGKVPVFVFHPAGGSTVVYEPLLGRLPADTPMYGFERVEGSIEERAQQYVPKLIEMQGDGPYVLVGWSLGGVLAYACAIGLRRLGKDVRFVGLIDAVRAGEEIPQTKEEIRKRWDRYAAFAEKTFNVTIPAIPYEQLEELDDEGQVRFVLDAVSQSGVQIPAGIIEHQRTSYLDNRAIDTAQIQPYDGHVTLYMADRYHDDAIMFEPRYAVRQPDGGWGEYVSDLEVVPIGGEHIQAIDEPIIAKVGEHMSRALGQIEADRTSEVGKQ
UniProt P9WNZ1, whole entry: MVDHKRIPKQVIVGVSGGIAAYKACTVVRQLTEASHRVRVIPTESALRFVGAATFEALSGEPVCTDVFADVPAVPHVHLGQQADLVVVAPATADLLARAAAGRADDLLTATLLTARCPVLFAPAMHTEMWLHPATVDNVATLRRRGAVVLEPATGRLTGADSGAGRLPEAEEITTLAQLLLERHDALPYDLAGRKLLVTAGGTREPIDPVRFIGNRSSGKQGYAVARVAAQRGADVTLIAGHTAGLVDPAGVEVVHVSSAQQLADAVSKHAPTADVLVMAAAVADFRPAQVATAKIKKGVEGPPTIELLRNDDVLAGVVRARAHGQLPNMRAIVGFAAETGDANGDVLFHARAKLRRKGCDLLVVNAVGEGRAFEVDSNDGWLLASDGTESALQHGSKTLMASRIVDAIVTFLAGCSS
UniProt P9WFT3, whole entry: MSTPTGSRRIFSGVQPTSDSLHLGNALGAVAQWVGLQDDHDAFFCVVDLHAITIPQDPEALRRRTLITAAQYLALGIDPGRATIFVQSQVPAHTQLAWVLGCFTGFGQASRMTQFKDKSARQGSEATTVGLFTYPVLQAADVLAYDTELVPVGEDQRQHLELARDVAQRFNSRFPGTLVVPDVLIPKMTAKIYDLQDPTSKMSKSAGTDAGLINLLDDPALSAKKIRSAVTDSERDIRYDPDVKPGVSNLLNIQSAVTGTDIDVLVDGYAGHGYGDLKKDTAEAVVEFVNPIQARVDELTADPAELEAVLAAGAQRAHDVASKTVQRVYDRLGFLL
UniProt A4I591, 1-473: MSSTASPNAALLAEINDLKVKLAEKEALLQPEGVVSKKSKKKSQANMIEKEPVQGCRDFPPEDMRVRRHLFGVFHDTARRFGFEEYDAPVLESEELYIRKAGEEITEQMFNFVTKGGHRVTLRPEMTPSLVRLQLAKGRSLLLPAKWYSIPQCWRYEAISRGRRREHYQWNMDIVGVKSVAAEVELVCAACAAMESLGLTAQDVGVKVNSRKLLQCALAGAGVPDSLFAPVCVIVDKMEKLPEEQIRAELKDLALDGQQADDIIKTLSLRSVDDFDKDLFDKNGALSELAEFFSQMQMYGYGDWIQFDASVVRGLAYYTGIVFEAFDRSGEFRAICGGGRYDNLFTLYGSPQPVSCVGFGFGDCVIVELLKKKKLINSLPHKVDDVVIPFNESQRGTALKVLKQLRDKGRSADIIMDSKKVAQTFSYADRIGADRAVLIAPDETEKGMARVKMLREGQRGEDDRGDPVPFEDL
UniProt Q4DA54, 1-478: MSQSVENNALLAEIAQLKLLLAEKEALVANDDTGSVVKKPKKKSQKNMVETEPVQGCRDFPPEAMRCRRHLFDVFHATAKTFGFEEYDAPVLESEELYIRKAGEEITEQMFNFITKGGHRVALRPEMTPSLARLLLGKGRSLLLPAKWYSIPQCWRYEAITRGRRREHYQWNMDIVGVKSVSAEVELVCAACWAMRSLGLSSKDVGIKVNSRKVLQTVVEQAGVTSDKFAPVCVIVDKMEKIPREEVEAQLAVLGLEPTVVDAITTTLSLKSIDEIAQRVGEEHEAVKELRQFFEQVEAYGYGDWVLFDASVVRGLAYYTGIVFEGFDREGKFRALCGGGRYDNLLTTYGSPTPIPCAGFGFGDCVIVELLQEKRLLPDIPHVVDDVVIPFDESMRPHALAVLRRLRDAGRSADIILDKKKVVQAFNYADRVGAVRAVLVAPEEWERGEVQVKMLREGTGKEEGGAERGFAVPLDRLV

Data taken from ChEMBL document CHEMBL3988442, “University of Dundee, Small-Polar-MMV Screening Library” (2021).

A: 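Polyketide synthase Pks13, Mycobacterium tuberculosis (UniProt I6X8D2). Enzyme assay of the thioesterase domain of polyketide synthase 13; the read-out is not stated. Tested at 30 µM. The record gives no direction; the compounds picked for IC50 retests had high values, so higher reads as stronger inhibition. Of about 67,000 compounds tested this way, about 300 (0.46%) reached 50% or more in at least one test.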
B: 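Assay of Toxoplasma gondii numbers, read through their beta-galactosidase reporter with a colour substrate. Compounds at 10 µM. Higher reads as fewer parasites (inferred from which compounds were picked for retests). Size under these conditions: about 67,000 compounds, about 260 of them at 50% or above in at least one test.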
C: 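Coenzyme A biosynthesis protein CoaBC, Mycobacterium tuberculosis (UniProt P9WNZ1). Enzyme assay of CoaBC with a phosphate dye (Biomol Green) read at 650 nm. Compounds at 30 µM. Direction is inferred from only a few compounds that gave an IC50; most scored high, so higher reads as stronger inhibition. Most strong results did not repeat in a second test. About 67,000 compounds were tested under these conditions; 0.06% (about 40) showed 50% or more at least once.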
D: 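Tryptophan-tRNA ligase, Mycobacterium tuberculosis (UniProt P9WFT3). Enzyme assay of tryptophanyl-tRNA synthetase; the read-out is not stated. Compounds at 10 µM. Direction is not recorded; retested compounds ran higher, which suggests that high means inhibition. About 65,000 compounds were tested under these conditions; 0.098% (about 64) showed 50% or more at least once.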
E: 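Enzyme assay of histidyl-tRNA synthetase; the read-out is not stated. Target: Histidine-tRNA ligase, Leishmania infantum (UniProt A4I591). Compounds at 30 µM. Higher reads as stronger inhibition (inferred: compounds with an IC50 in retests scored well above the rest). The assay is labelled LdHisRS but filed under L. infantum. Size under these conditions: about 69,000 compounds, about 410 of them at 50% or above in at least one test.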
F: 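Histidine-tRNA ligase, Trypanosoma cruzi CL Brener (UniProt Q4DA54). Enzyme assay of histidyl-tRNA synthetase; the read-out is not stated. Concentration: 30 µM. Direction is inferred from retests: higher values go with stronger inhibition. Of about 69,000 compounds tested this way, about 31 (0.045%) reached 50% or more in at least one test.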

Values are the deposited “Percent Effect”, in %. The record does not define 0% and 100%; most values in the screen are far below 50% and negative numbers occur (in some assays of this library far below -100). Compounds were drawn at random from those tested, without regard to their results. A dash means the value is not listed here; it may have been measured.

Compound,A,B,C,D,E,F
COC[C@]12COC[C@H]1CN(C(=O)c1ccc(F)cc1C)C2,19.11%,-,-,-1.453%,3.419%,2.454%
COCCN1CC[C@@H]2O[C@@H](COCC(=O)N3CCCC3)CC[C@@H]21,-21.36%,-,-0.2151%,-1.069%,17.14%,4.132%
N#Cc1ccc(N2CCCN(CC(=O)N3CCC3)CC2)cc1,-5.483%,-2.401%,-33.47%,-8.596%,7.018%,7.563%
O=C(NCC(O)c1ccoc1)Nc1c(F)cccc1F (stereo not given),-11.49%,22.19%,-0.4843%,4.364%,23.91%,12%
CCOCC1CN(Cc2ccc(OC)cc2)Cc2nn(C)cc21.O=C(O)C(F)(F)F (stereo not given),-,-2.748%,-,-,-,-
O=C(c1ccc(N2CCOCC2)nc1)N1CCCC(n2ccnc2)C1 (stereo not given),-25.74%,-10.7%,0.7673%,3.016%,20.18%,3.529%
O=C(NCCn1ccc(-c2ccncc2)n1)c1ccc2c(c1)OCO2,-16.2%,-0.4837%,3.308%,-2.418%,-5.128%,1.205%
CC(CNC(=O)c1cc(C2CC2)nc2c1cnn2C)Cn1cccn1 (stereo not given),12.34%,12.47%,1.235%,-0.08333%,12.9%,6.736%
O=C(O)C(F)(F)F.O=C(O)C(F)(F)F.[H][C@@]12CCN(Cc3ccccn3)C[C@]1(C(=O)NCc1ccco1)CCO2,-,0.338%,-,-,-,-
COc1ccc(C(O)CNC(=O)Cn2ccc(=O)n(C)c2=O)cc1 (stereo not given),7.325%,4.289%,-2.552%,-1.068%,10%,6.863%
CC(C)(C)c1nc(CN(CCC2CCCCC2)CC(N)=O)no1,57.18%,48.89%,0%,-1.961%,17.39%,6%
Cc1ccc(C(=O)N2CCCC(n3cncn3)C2)o1 (stereo not given),-3.827%,-27.18%,-1.722%,-0.2867%,3.54%,-0.8772%
Cc1ccnn1-c1ccc(C(=O)N2CCCC(n3ccnc3)C2)cc1 (stereo not given),-25.69%,-8.413%,7.018%,-3.625%,7.143%,1.744%
NC(=O)C(NC(=O)c1ccc(NC2CC2)nc1)c1ccccc1 (stereo not given),3.444%,-4.555%,9.127%,-2.16%,16.96%,-1.724%
CC(O)(CNC(=O)c1cccnc1-n1cccn1)c1ccsc1 (stereo not given),-3.475%,-14.51%,5.097%,1.872%,9.524%,-2.97%
O=C(Cc1ccsc1)N1C[C@@H]2OCCN(CC3CCCO3)[C@@H]2C1 (stereo not given in full),-0.8428%,-,0.1233%,-0.1501%,19.35%,5.263%
CO[C@H]1CC[C@H]2[C@H]1OCCN2CCOCc1ccccc1,-7.571%,-,4.68%,-4.988%,18%,1.031%
Cc1ccc(CSc2nc(N)cc(NCC(=O)N3CCNCC3)n2)cc1,-25.21%,-6.302%,-20%,-0.8227%,25%,0.4926%
CCn1ccc(-c2cc(C(=O)O)n3ncc(Cl)c3n2)n1,10.15%,10.77%,0%,1.876%,5.747%,2.062%
CN1CCc2nc3cc(C(=O)NCc4cccs4)ccc3c(=O)n2CC1,-5.318%,2.554%,-5.097%,2.326%,4.286%,1.916%
COCCOCC(=O)N(C)Cc1ccc(OCc2cccs2)cc1,-21.31%,-0.2564%,-1.499%,-10.7%,0%,1.571%
CC(C)C(Sc1nnnn1C1CC1)C(=O)NCc1cccnc1 (stereo not given),-6.782%,1.059%,0.4819%,-4.237%,5.479%,3.817%
Cc1nc2c(c(Nc3ccccn3)n1)CN(S(C)(=O)=O)CC2,-0.5806%,-,3.563%,13.38%,-1.408%,1.538%
COCCN1CCCn2cnc(CNC3CCCC3)c2C1,-24.62%,-,-33.75%,37.59%,77.78%,43.32%
CCOCC(=O)NCc1cc(Br)ccc1OC(F)F,-8.367%,-0.4651%,6.198%,6.3%,9.821%,1.667%
COCCN(Cc1nccs1)C(=O)c1cc(-c2ccc(C)o2)n[nH]1,5.346%,-9.518%,-2.823%,-4.886%,10.53%,9.497%
CCCN1CCC(CNC(=O)C2(c3cccc(C)c3)CC2)C1 (stereo not given),-21.34%,-18.9%,-5.725%,3.578%,7.826%,6.197%
Cn1nc(C(=O)N2CCOCC2)cc1C(=O)Nc1ccc(Cl)cc1Cl,3.535%,7.43%,-3.353%,1.077%,12.5%,5.263%
CN(Cc1ccc(Cl)s1)C(=O)NCCC(=O)N1CCCCCC1,-13.7%,4.582%,4.242%,1.481%,19.35%,5.102%
Cc1cccc2nc(C(=O)N3CCC4(CCC(=O)N(C)C4)CC3)c(F)n12,-25.51%,10.98%,14.47%,1.098%,4.918%,2.146%

3 of the entries, repeated:

Compound,A,B,C,D,E,F
Cn1nc(C(=O)N2CCOCC2)cc1C(=O)Nc1ccc(Cl)cc1Cl,3.535%,7.43%,-3.353%,1.077%,12.5%,5.263%
CCn1ccc(-c2cc(C(=O)O)n3ncc(Cl)c3n2)n1,10.15%,10.77%,0%,1.876%,5.747%,2.062%
Cc1ccc(CSc2nc(N)cc(NCC(=O)N3CCNCC3)n2)cc1,-25.21%,-6.302%,-20%,-0.8227%,25%,0.4926%